Legend:
Format in all cases: cell-based
22RV1 [1] = test: Cell viability, MTT assay, 22RV1; conditions: Homo sapiens, 22RV1 (Prostate), 96 hr
Experimental: (§1) To measure cell viability, cell titer glow (CTG, Promega CellTiter-Glo 2.0 Assay) and MTT assays (SigmaAldrich, Cell Proliferation Kit I) were performed. Briefly, cells were serum starved overnight prior to seeding in 96-well plates. Following 24 h incubation, cells were treated with increasing concentrations of JGJ compounds for 96 hr. At assay read-out, CellTiter-Glo reagent was added and luminescence was measured after 10-minutes incubation at room temperature. For the MTT assay, MTT labeling reagent was added and incubated for 4 h. Subsequently, medium was removed and 50 μL DMSO was added to solubilize the crystals, and absorbance was measured at 570 nm. Cell viability was calculated as (Sample-Background)/(Control-Background). Current standard of care drugs, Enzalutamide, Palbociclib and Cetuximab were used as comparative controls.

22RV1 [2] = test: Cell viability, CellTiter-Glo (CTG), 22RV1; conditions: Homo sapiens, 22RV1 (Prostate), 96 hr
Experimental: as §1

LNCaP = test: Cell viability, MTT assay, LNCaP; conditions: Homo sapiens, LNCaP (Prostate)
Experimental: as §1

SMILES: CNC(=O)c1ccc(N2C(=S)N(c3ccc(C#N)c(C(F)(F)F)c3)C(=O)C2(C)C)cc1F [Enzalutamide, reference compound]
- IC50 (22RV1 [1]): 53 µM
- IC50 (22RV1 [2]): 88 µM
- IC50 (LNCaP): 5 µM

Source: patent US20230059009A1, “INHIBITORS OF LIN28 AND METHODS OF USE THEREOF” (The Regents of the University of California, priority 2019, published 2023)
